{"source": "patent US20260297136A1", "about": "“PEPTIDES WITH LIPOLYTIC, ANTI-LIPOGENIC, ANTIFIBROTIC AND ANTI-INFLAMMATORY ACTIVITY” (FUNDACIÓ HOSPITAL UNIVERSITARI VALL D'HEBRON - INSTITUT DE …, priority 2023, published 2026)", "key": {"HepG2 cells [1]": {"test_system": "HepG2 cells", "assay": "Hepatic lipogenesis gene expression (ACC, FAS, ACLY mRNA by RTPCR) in HepG2 cells, Example 2", "assay_type": "cell-based, human", "conditions": "10 μM, 24 h, relative to 18S", "method": "FIG. 5 Human hepatoblastoma cell line HepG2 was treated with vehicle (DMSO) or 10 μM of GP4, GP7, GP8 or GP9 for 24 h. RNA was extracted and mRNA levels of Acetyl-CoA Carboxylase (ACC), Fatty Acid Synthase (FAS) and ATP-Citrate Lyase (ACLY) relative to 18S were measured by RTPCR.\n(§1) Cell culture reagents were from Life Technologies Inc (Invitrogen SA, Barcelona, Spain). HepG2 hepatoblastoma cells (cat. no. HB-8065; ATCC, LGC Standards SLU, Barcelona, Spain) were maintained in Dulbecco's modified Eagle medium (DMEM) supplemented with 10% fetal bovine serum and antibiotics. HepG2 cells were treated with vehicle or 10 μM of GP4, GP7, GP8 and GP9 for 24 h. LX-2 human hepatic stellate cells (SCC064) were maintained in DMEM supplemented with 2% fetal bovine serum and antibiotics. For experiments, LX-2 were cultured for 24 h in DMEM 0.2% FBS and treated for 24 h with vehicle or TGFβ1 (20 ng/ml) in the absence or presence of 8 μM of GP4, GP7, GP8 and GP9 for 24 h. At the end of the experiment's cells were harvested for gene expression analysis.\nTotal RNA was extracted from HepG2 and LX-2 cells using TRIzol reagent (Invitrogen SA). Reverse transcription was performed at 42° C. for 50 minutes using […] of total RNA, 200 U of Superscript II, and an oligo-dT primer and reagents provided by Invitrogen. An aliquot of the reverse transcription product was amplified in a […] reaction using SYBRGreen (Invitrogen SA) with appropriate oligonucleotide primer pairs corresponding to human ACC, FAS, ACLY, Col1A1 and 18S (shown in table 7). Results were analyzed using the 7000 Sequence Detection System program (Applied Biosystems, Thermo Fisher Scientific, Barcelona, Spain) (Sex Hormone-Binding Globulin Reduction in Metabolic Disorders May Play a Role in NAFLD Development.Saez-Lopez C, Barbosa-Desongles A, Hernandez C, Dyer R A, Innis S M, Simo R, Selva D M. Endocrinology. 2017 Mar. 1; 158(3):545-559. doi: 10.1210/en.2016-1668)."}, "LX-2 cells": {"test_system": "LX-2 cells", "assay": "Fibrosis in LX-2 cells: Col1A1 mRNA induced by TGFβ1, Example 2", "assay_type": "cell-based, human", "conditions": "8 μM, 24 h", "method": "FIG. 6. Human hepatic stellate cell line LX-2 was treated with vehicle (DMSO) or TGFβ1 (10 ng/ml) in the absence or presence of 8 μM of GP8 or GP9 for 24 h. RNA was extracted and mRNA levels of collagen 1A1 (Col1A1) relative to 18S were measured by RTPCR.\nas §1, with “For experiments, LX-2 were cultured for 24 h in DMEM 0.2% FBS and treated for 24 h with vehicle or TGFβ1 (20 ng/ml) in the absence or presence of 8 μM of GP4, GP7, GP8 and GP9 for 24 h. At the end of the experiment's cells were harvested for gene expression analysis.” left out\nTotal RNA was extracted from HepG2 and LX-2 cells using TRIzol reagent (Invitrogen SA). […] Results were analyzed using the 7000 Sequence Detection System program (Applied Biosystems, Thermo Fisher Scientific, Barcelona, Spain) (Sex Hormone-Binding Globulin Reduction in Metabolic Disorders May Play a Role in NAFLD Development.Saez-Lopez C, Barbosa-Desongles A, Hernandez C, Dyer R A, Innis S M, Simo R, Selva D M. Endocrinology. 2017 Mar. 1; 158(3):545-559. doi: 10.1210/en.2016-1668)."}, "human mature adipocytes": {"test_system": "human mature adipocytes", "assay": "Lipolysis in human mature adipocytes (glycerol production), Example 2", "assay_type": "cell-based", "conditions": "10 μM, 16 h, with respect to control cells", "method": "FIG. 7. Mature human subcutaneous adipocytes were treated with vehicle (DMSO), 3 μM of Isoproterenol or 10 μM of GP4, GP8 or GP9 for 16 h. Glycerol concentration was assessed using a Lipolysis Assay Kit (Tebu-bio). Lipolysis induction was calculated with respect to the control cells treated with DMSO.\nHuman preadipocytes and cell culture reagents were from purchased from Tebu-Bio (Tebu-bio, Barcelona, Spain) and differentiation protocol was done following the manufacturer's instructions. Human adipocytes were maintained in a humidified incubator with 5% CO2 at 37° C. (Sex hormone-binding globulin overexpression protects against high-fat diet-induced obesity in transgenic male mice. Saez-Lopez C, Villena J A, Simo R, Selva D M. J Nutr Biochem. 2020 November; 85:108480. doi: 10.1016/j.jnutbio.2020.108480).\nLipolysis assays were performed using a Lipolysis Kit (Tebu-Bio) following the manufacturer's instructions as previously described."}, "HepG2 cells [2]": {"test_system": "HepG2 cells", "assay": "Hepatic lipogenic key enzymes in HepG2 cells in the presence of 30 mM fructose (2 h), Example 7", "assay_type": "cell-based, human", "conditions": "40 μg/ml", "method": "FIG. 34. Effects of different peptides and SHBG in reducing hepatic lipogenic key enzymes in the presence of 30 mM fructose. Each bar within each group represents mRNA levels of a key hepatic lipogenic enzyme, from left to right: Acetyl-CoA Carboxylase (ACC), ATP Citrate Lyase (ACLY) and Fatty Acid Synthase (FAS), and a key transcription factor regulating several lipogenic enzymes such as PPARγ (PPARγ).\nCell culture reagents were from Life Technologies Inc (Invitrogen SA, Barcelona, Spain). HepG2 hepatoblastoma cells (cat. no. HB-8065; ATCC, LGC Standards SLU, Barcelona, Spain) were maintained in Dulbecco's modified Eagle medium (DMEM) supplemented with 10% fetal bovine serum and antibiotics.\n• HepG2 cells were cultured for 5 day in the absence or presence of 30 mM fructose. Cells cultured in 30 mM fructose were daily treated with vehicle, Telmisartan, Semaglutide or EDL6D. • HepG2 cells were cultured for 24 h in the absence or presence of GP6 (40 μg/ml), GP10 (40 μg/ml), GP11 (40 μg/ml), GP12 (40 μg/ml), GP13 (40 μg/ml) or SHBG (20 nM). • HepG2 cells were cultured in the absence or presence of 30 mM fructose and treated for 2 h with vehicle or GP4 (40 μg/ml), GP6 (40 μg/ml), GP7 (40 μg/ml), GP8 (40 μg/ml), GP9 (40 μg/ml), GP10 (40 μg/ml), GP11 (40 μg/ml), GP12 (40 μg/ml), GP13 (40 μg/ml) or SHBG (20 nM).\nTotal RNA was extracted from HepG2 and LX-2 cells using TRIzol reagent (Invitrogen SA). Reverse transcription was performed at 42° C. for 50 minutes using […] of total RNA, 200 U of Superscript II, and an oligo-dT primer and reagents provided by Invitrogen. An aliquot of the reverse transcription product was amplified in a […] reaction using SYBRGreen (Invitrogen SA) with appropriate oligonucleotide primer pairs corresponding to human SHBG, ACC, FAS, ACLY, PPARG, and 18S and mouse ACC, FAS, ACLY, PPARG, Col1A1 and 18S. Results were analyzed using the 7000 Sequence Detection System program (Applied Biosystems, Thermo Fisher Scientific, Barcelona, Spain) (Shez-Lopez et al Endocrinology 2017)."}}, "note": "Part of at least one peptide drawing is inferred or uncertain, most often the ends."}
{"smiles": "CC[C@H](C)[C@@H](NC(=O)[C@H](NC(=O)CNC(=O)[C@@H](CCC(=O)O)NC(=O)[C@H]1CCCN1C(=O)[C@@H](CC(=O)O)NC(=O)[C@@H](Cc1c[nH]c2ccccc12)NC(=O)[C@H](NC(=O)[C@@H](CCCNC(=N)N)NC(=O)[C@H](NC(=O)[C@@H](CCC(=O)O)NC(=O)[C@@H](Cc1ccccc1)NC(=O)[C@@H](CO)NC(=O)[C@@H](CO)NC(=O)[C@@H](CO)NC(=O)[C@H](NC(=O)[C@@H](CCCCN)NC(=O)[C@H](N)[C@H](C)O)[C@H](C)O)C(C)C)[C@H](C)O)C(C)C)C(=O)N[C@H](Cc1ccccc1)C(=O)N[C@H](Cc1ccc(O)cc1)C(=O)NCC(=O)N[C@H](CC(=O)O)C(=O)N[C@@H](C(=O)N[C@H](CC(N)=O)C(=O)N1CCC[C@@H]1C(=O)N[C@H](CCCCN)C(=O)N[C@H](CC(=O)O)C(=O)N[C@H](CC(=O)O)C(=O)N[C@H](Cc1c[nH]c2ccccc12)C(=O)N[C@H](Cc1ccccc1)C(=O)O)[C@H](C)O", "note": "[GP8]", "values": [{"measurement": "ATP-Citrate Lyase (ACLY) mRNA levels", "setting": "HepG2 cells [1]", "result": "reduced"}, {"measurement": "Acetyl-CoA Carboxylase (ACC) mRNA levels", "setting": "HepG2 cells [1]", "result": "reduced"}, {"measurement": "Fatty Acid Synthase (FAS) mRNA levels", "setting": "HepG2 cells [1]", "result": "reduced"}, {"measurement": "reduction of Col1A1 mRNA levels induced by TGFβ1", "setting": "LX-2 cells", "result": 31, "unit": "%"}, {"measurement": "increase of glycerol production (lipolysis)", "setting": "human mature adipocytes", "result": 370, "unit": "%"}, {"measurement": "fructose-induced expression of ACC", "setting": "HepG2 cells [2]", "result": "able to reduce"}, {"measurement": "fructose-induced expression of ACLY", "setting": "HepG2 cells [2]", "result": "able to reduce"}, {"measurement": "fructose-induced expression of FAS", "setting": "HepG2 cells [2]", "result": "able to reduce"}, {"measurement": "fructose-induced expression of PPARγ", "setting": "HepG2 cells [2]", "result": "able to reduce"}]}
